Results reported in publication PMC8778264 (Nanomaterials, 2022).
pIC50: −log10 of the molar value.

Test system: CRL-1739 cells
Assay: In vitro cytotoxicity (MTT assay)
Type: cell-based
Settings: 48 h, GraphPad Prism
Experimental: The cell line was cultured in DMEM supported with 10% fetal bovine serum, 0.5 mg/mL glutamine/penicillin streptomycin at 37 °C and 5% CO2. […] Ninety-six well flat-bottom plates and […] DMEM were used for the seeding procedure. […] Then, 100 μL of MTT solution (5 mg/mL) was put into each well and incubated at 37 °C. The culture medium was removed. Then, 200 μL of dimethysulfoxide was added to obtain the dissolution of the MTT formazan crystals. The absorbance was read at 570 nm using a microplate reader.

Q: `Cc1ccc(NC(=O)c2ccc(CN3CCN(C)CC3)cc2)cc1Nc1nccc(-c2cccnc2)n1` [IMT, Imatinib] was tested. Which pIC50 did it give?
A: 5.02
